Laboratory results from patent US20230303504A1, “CRYSTALLINE SALTS OF TIZOXANIDE AND 2-HYDROXY-N-(5-CHLORO-1,3-THIAZOL-2-YL)BENZAMIDE (RM-4848) WITH ETHANOLAMINE, MORPHOLINE, PROPANOLAMINE, PIPERAZINE AND N-METHYLPIPERAZINE” (priority 2020, published 2023).
At least one compound was matched to its structure with a doubt left.

Experiments:
[1] = Differential scanning calorimetry (DSC); format: physicochemical; conditions: 10 °C/min under nitrogen; irreversible for RM-5071
Protocol: Differential scanning calorimetry (DSC) is a thermo-analytical technique in which the difference in the amount of heat required to increase the temperature of a sample versus a reference are measured as a function of temperature. The reference sample should have a well-defined heat capacity over the range of temperatures to be scanned. One application of DSC is studying phase transitions, such as melting, glass transitions, and/or exothermic decompositions. Such measurements provide qualitative and quantitative information about physical and chemical changes of a molecule.
The calorimetric analysis was performed by the MCC. For the DSC analysis, amounts between 2.34 to 2.46 mg of the samples RM-5071 and desacetyl-NTZA were placed individually in aluminum hermetic pans and covered with an aluminum lid. The temperature method was: step 1: hold for 10 min at 25° C., and step 2: heat from 25° C. to 400 at 10.00 ° C./min. An additional DSC experiment was performed to determine further crystallinity behavior by performing a heat-cool-heat cycling experiment to RM-5071. Approximately 1.69 mg of the RM-5071sample was placed in an aluminum hermetic pan and covered with an aluminum lid. […]

[2] = Thermogravimetric analysis (TGA); format: physicochemical
From the text: Thermogravimetric analysis (TGA) is an analytical technique used to determine the thermal stability of a material and its fraction of volatile components by monitoring the weight change that occurs as a substance is heated. As many weight loss curves look similar, the curves may require transformation before results may be interpreted. A derivative weight loss curve can be used to tell the point at which weight loss is most apparent. The analysis is normally carried out in air or in an inert atmosphere such as nitrogen.
For the TGA analysis, amounts between 2.0 to 2.6 mg of both RM-5071 and desacetyl-NTZA samples were placed individually in platinum pans. The temperature method was: step 1: equilibrate at 25° C., step 2: heat from 25° C. to 700° C. at 10.00° C./min, step 3: hold for 5 min at 700° C. The analyses were carried out under nitrogen.

[3] = 10 °C/min under nitrogen, listed as desacetyl-NTZA

## O=C(Nc1ncc([N+](=O)[O-])s1)c1ccccc1O [Desacetyl-NTZA, 2-Hydroxybenzoyl-N-[(5-nitro)thiazol-2-yl]amide]
[1]
  DSC peak transition temperature (exothermic; solid stable up to): 286 °C
[2]; 10 °C/min under nitrogen
  First step Temperature (° C.): 199-280 °C
  First step Weight loss (%): 36.38%
  Second step Temperature(° C.): 280-700 °C
  Second step Weight loss (%): 30.96%
[2]; [3]
  First step Temperature (° C.): 199-280 °C
  First step Weight loss (%): 36%
[2]; 25 to 700 °C under nitrogen
  total weight loss: ~67%
